Measured values published in the M2OR odorant receptor database.
The list shows a part of the results, in another mix than the full data. Calls are pooled over several reports, among them a noisy single-well screen. The list shows a part of the results.

Key:
Conditions in all cases: stereoisomer not certain
[1] = tested on: T1, OR1L1
T1 sequence (whole entry): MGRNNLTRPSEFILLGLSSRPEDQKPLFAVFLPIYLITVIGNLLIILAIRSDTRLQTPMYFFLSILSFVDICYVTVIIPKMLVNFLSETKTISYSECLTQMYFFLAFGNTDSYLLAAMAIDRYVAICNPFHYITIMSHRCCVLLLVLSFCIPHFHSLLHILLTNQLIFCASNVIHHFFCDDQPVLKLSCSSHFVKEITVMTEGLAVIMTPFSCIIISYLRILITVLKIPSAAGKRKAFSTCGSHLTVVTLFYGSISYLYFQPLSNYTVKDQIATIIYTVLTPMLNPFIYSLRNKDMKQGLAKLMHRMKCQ
Method in brief: (§1)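 Transient luciferase assays in mammalian cell lines were common, though methods varied by source. The values come from published papers and their supplementary material, with extra details from the original authors when needed. Responsive refers to a measured signal the original authors judged statistically different from baseline, and non-responsive (inactive) to the remainder.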

[2] = biological target: T2, OR1L3 (Homo sapiens) (UniProt Q8NH93)
T2 sequence (whole entry): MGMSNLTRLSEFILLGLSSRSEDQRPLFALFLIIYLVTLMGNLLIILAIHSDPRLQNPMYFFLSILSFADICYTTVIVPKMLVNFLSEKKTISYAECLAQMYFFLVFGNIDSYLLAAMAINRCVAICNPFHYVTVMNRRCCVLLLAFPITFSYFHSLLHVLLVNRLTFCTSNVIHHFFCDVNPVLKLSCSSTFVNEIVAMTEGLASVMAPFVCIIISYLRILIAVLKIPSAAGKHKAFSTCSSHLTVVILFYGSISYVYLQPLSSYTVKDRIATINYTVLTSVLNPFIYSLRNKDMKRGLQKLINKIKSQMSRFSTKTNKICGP
Method in brief: as §1

[3] = tested on: T3, OR1L4
T3 sequence (whole entry): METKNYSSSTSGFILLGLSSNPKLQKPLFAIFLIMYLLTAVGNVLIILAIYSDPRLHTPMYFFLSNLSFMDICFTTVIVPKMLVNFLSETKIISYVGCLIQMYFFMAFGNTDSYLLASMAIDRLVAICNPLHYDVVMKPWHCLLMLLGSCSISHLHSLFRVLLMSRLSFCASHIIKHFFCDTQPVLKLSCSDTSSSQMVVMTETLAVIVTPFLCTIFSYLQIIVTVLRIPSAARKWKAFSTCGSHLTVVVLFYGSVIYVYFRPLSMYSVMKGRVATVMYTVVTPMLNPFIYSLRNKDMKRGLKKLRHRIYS
Method in brief: as §1

[4] = tested on: T4, OR1L6
T4 sequence (whole entry): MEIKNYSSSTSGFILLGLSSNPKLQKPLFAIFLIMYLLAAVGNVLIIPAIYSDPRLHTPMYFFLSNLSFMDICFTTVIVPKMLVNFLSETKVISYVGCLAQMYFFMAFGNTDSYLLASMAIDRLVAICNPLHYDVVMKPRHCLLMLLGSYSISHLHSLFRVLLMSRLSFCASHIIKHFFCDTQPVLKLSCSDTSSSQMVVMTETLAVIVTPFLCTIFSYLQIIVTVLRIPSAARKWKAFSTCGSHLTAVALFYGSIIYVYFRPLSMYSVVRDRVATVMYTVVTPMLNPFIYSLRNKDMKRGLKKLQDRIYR
Method in brief: as §1

[5] = biological target: T5, OR1L8 (Homo sapiens) (UniProt Q8NGR8)
T5 sequence (whole entry): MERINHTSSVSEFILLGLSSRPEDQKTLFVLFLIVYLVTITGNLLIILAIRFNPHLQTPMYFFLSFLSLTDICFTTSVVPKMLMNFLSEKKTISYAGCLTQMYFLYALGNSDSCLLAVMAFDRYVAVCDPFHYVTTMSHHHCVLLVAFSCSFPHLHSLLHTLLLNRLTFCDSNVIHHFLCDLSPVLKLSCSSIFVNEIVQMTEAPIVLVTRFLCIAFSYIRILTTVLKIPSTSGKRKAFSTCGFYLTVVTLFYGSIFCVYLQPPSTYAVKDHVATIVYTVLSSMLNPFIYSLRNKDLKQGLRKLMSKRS
Method in brief: as §1

[6] = tested on: T6, OR1M1
T6 sequence (whole entry): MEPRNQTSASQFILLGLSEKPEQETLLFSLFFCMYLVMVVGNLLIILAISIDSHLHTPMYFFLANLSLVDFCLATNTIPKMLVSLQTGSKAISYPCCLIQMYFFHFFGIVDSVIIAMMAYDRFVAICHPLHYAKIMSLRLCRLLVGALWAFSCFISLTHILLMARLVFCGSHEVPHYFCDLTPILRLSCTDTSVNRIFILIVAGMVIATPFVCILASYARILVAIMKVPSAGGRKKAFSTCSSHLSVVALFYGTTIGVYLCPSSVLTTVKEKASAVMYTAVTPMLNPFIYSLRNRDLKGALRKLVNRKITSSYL
Method in brief: as §1

[7] = biological target: T7, OR1N1 (Homo sapiens) (UniProt Q8NGS0)
T7 sequence (whole entry): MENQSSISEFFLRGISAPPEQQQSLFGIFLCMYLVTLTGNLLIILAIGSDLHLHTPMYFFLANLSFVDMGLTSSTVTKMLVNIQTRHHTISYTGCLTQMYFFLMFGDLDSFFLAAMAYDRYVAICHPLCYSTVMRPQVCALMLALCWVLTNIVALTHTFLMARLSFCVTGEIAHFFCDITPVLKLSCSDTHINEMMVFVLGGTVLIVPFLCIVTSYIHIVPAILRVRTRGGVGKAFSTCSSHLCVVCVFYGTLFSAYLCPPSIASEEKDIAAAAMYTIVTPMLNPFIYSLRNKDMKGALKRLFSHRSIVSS
Method in brief: as §1

[8] = biological target: T8, OR1N2 (Homo sapiens) (UniProt Q8NGR9)
T8 sequence (whole entry): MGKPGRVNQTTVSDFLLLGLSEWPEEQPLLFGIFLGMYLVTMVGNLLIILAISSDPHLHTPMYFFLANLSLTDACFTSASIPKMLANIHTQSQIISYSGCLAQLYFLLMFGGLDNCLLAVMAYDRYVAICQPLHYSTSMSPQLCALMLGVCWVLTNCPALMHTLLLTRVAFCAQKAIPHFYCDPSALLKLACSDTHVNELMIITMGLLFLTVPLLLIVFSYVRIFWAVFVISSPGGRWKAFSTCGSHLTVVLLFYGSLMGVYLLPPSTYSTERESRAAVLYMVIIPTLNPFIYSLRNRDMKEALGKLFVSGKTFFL
Method in brief: as §1

[9] = biological target: OR1M1 (Homo sapiens) (UniProt Q8NGA1)
Method in brief: as §1

[10] = biological target: OR1L4 (Homo sapiens) (UniProt Q8NGR5)
Method in brief: as §1
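Also: active if original authors judged signal statistically different from baseline.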

Row | Structure (SMILES) | odorant receptor agonist call [1] | odorant receptor agonist call [2] | odorant receptor agonist call [3] | odorant receptor agonist call [4] | odorant receptor agonist call [5] | odorant receptor agonist call [6] | odorant receptor agonist call [7] | odorant receptor agonist call [8] | odorant receptor agonist call [9] | odorant receptor agonist call [10]
1 | CCCCO | inactive | inactive | inactive | inactive | inactive | inactive | inactive | inactive | – | –
2 | CC(C)C=O | inactive | inactive | inactive | inactive | inactive | inactive | inactive | inactive | – | –
3 | CCCCCCOC(=O)CCC | inactive | inactive | inactive | inactive | inactive | active | inactive | inactive | – | –
4 | CCCCCC(=O)O | inactive | inactive | inactive | inactive | inactive | inactive | inactive | inactive | – | –
5 | CCC=CCCO | inactive | inactive | inactive | inactive | inactive | inactive | inactive | inactive | – | –
6 | CCC1(O)C2(C)CCC(C2)C1(C)C (stereo not given) | inactive | inactive | inactive | inactive | inactive | inactive | inactive | inactive | – | –
7 | CC(=O)OCC=C(C)CCC=C(C)C | inactive | inactive | inactive | inactive | inactive | inactive | inactive | inactive | – | –
8 | c1ccc(Oc2ccccc2)cc1 | inactive | inactive | inactive | inactive | inactive | inactive | inactive | inactive | – | –
9 | CC12C=CCC1C1CCC3=CC(=O)CCC3(C)C1CC2 (stereo not given) | inactive | inactive | inactive | inactive | active | inactive | inactive | inactive | inactive | –
10 | COc1cc(C)ccc1O | inactive | inactive | inactive | inactive | inactive | inactive | inactive | inactive | – | –
11 | CC(=O)C(C)=O | inactive | inactive | inactive | inactive | inactive | inactive | inactive | inactive | – | –
12 | C=CCSCC=C | inactive | inactive | inactive | inactive | inactive | inactive | inactive | inactive | – | –
13 | CCCCCCCCOC(C)=O | inactive | inactive | inactive | inactive | inactive | inactive | inactive | inactive | – | –
14 | O=C1CCCCCCCCCCCC(=O)OCCO1 | inactive | inactive | inactive | inactive | inactive | inactive | inactive | inactive | – | –
15 | CC12C=CCC1C1CCC3CC(=O)CCC3(C)C1CC2 (stereo not given) | inactive | inactive | inactive | inactive | inactive | active | inactive | inactive | inactive | inactive
16 | O=CCc1ccccc1 | inactive | inactive | inactive | inactive | inactive | inactive | inactive | inactive | – | –
17 | CC12CCC(C1)C(C)(C)C2=O (stereo not given) | inactive | inactive | inactive | inactive | inactive | inactive | inactive | inactive | – | –
18 | CC(=O)OC(C)(C)C1CC=C(C)CC1 (stereo not given) | inactive | inactive | inactive | inactive | inactive | inactive | inactive | inactive | – | –
19 | CCCCCCCCCCC=O | inactive | inactive | inactive | inactive | inactive | inactive | inactive | inactive | – | –
20 | COC(=O)c1ccccc1O | inactive | inactive | inactive | inactive | inactive | inactive | inactive | inactive | – | –
21 | CC(C)C(=O)O | inactive | inactive | inactive | inactive | inactive | active | inactive | inactive | – | –
22 | CCCCCCCC=O | inactive | inactive | inactive | inactive | inactive | inactive | inactive | inactive | – | –
23 | c1cnccn1 | inactive | inactive | inactive | inactive | inactive | inactive | inactive | inactive | – | –
24 | CCCCCCCCCC=O | inactive | inactive | inactive | inactive | inactive | inactive | inactive | inactive | – | –

Reformatted comma-delimited: part of the list above.
Row,Structure (SMILES),odorant receptor agonist call [1],odorant receptor agonist call [2],odorant receptor agonist call [3],odorant receptor agonist call [4],odorant receptor agonist call [5],odorant receptor agonist call [6],odorant receptor agonist call [7],odorant receptor agonist call [8],odorant receptor agonist call [9],odorant receptor agonist call [10]
3,CCCCCCOC(=O)CCC,inactive,inactive,inactive,inactive,inactive,active,inactive,inactive,–,–
4,CCCCCC(=O)O,inactive,inactive,inactive,inactive,inactive,inactive,inactive,inactive,–,–
